# Data as given in the supplement of paper PMC8728848.
# Some of the results follow.
# Columns and labels:
# Assay in all cases: glycan array binding signal (z-score within array); higher = stronger binding
# Details in all cases: glycan notation: IUPAC condensed, linker removed
# [1] = biological target: Fuc(a1-2)[GalNAc(a1-3)]Gal(b1-3)GlcNAc(b1-6)GalNAc
# Summary of the method: (§1)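 From the Consortium for Functional Glycomics database, 3228 arrays were curated, keeping only those whose protein sequence was available. Binding is given as a within-array Z-score averaged across arrays sharing a protein sequence and across linkers. Negative Z-scores can be read as non-binding.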
# [2] = biological target: Fuc(a1-2)[GalNAc(a1-3)]Gal(b1-4)Glc
# Summary of the method: as §1
# [3] = biological target: Fuc(a1-2)[GalNAc(a1-3)]Gal(b1-4)GlcNAc
# Summary of the method: as §1
# [4] = biological target: Fuc(a1-2)[GalNAc(a1-3)]Gal(b1-4)GlcNAc(b1-2)Man
# Summary of the method: as §1
# [5] = biological target: Fuc(a1-2)[GalNAc(a1-3)]Gal(b1-4)GlcNAc(b1-2)Man(a1-3)[Fuc(a1-2)[GalNAc(a1-3)]Gal(b1-4)GlcNAc(b1-2)Man(a1-6)]Man(b1-4)GlcNAc(b1-4)GlcNAc
# Summary of the method: as §1
# [6] = biological target: Fuc(a1-2)[GalNAc(a1-3)]Gal(b1-4)GlcNAc(b1-2)Man(a1-3)[Fuc(a1-2)[GalNAc(a1-3)]Gal(b1-4)GlcNAc(b1-2)Man(a1-6)]Man(b1-4)GlcNAc(b1-4)[Fuc(a1-6)]GlcNAc
# Summary of the method: as §1
# [7] = biological target: Fuc(a1-2)[GalNAc(a1-3)]Gal(b1-4)GlcNAc(b1-3)Gal(b1-4)GlcNAc
# Summary of the method: as §1
# [8] = biological target: Fuc(a1-2)[GalNAc(a1-3)]Gal(b1-4)GlcNAc(b1-3)Gal(b1-4)GlcNAc(b1-3)Gal(b1-4)GlcNAc
# Summary of the method: as §1
# [9] = biological target: Fuc(a1-2)[GalNAc(a1-3)]Gal(b1-4)GlcNAc(b1-3)GalNAc
# Summary of the method: as §1
# [10] = biological target: Fuc(a1-2)[GalNAc(a1-3)]Gal(b1-4)GlcNAc(b1-3)[Fuc(a1-2)[GalNAc(a1-3)]Gal(b1-4)GlcNAc(b1-6)]GalNAc
# Summary of the method: as §1
# [11] = biological target: Fuc(a1-2)[GalNAc(a1-3)]Gal(b1-4)GlcNAc(b1-6)GalNAc
# Summary of the method: as §1
# [12] = biological target: Fuc(a1-2)[GalNAc(a1-3)]Gal(b1-4)[Fuc(a1-3)]GlcNAc
# Summary of the method: as §1
# [13] = biological target: Fuc(a1-2)[GalNAc(a1-3)]Gal(b1-4)[Fuc(a1-3)]GlcNAc(b1-3)GalNAc
# Summary of the method: as §1
# [14] = biological target: Fuc(a1-2)[GalNAc(a1-4)]Gal(b1-4)GlcNAc
# Summary of the method: as §1
# [15] = biological target: Fuc(a1-2)[GalNAc(b1-3)]Gal
# Summary of the method: as §1
# [16] = biological target: Fuc(a1-3)GlcNAc
# Summary of the method: as §1
# [17] = biological target: Fuc(a1-3)[Gal(b1-4)]Glc6S
# Summary of the method: as §1
# [18] = biological target: Fuc(a1-3)[Gal(b1-4)]GlcNAc
# Summary of the method: as §1
# [19] = biological target: Fuc(a1-3)[Gal(b1-4)]GlcNAc(b1-2)Man
# Summary of the method: as §1
# [20] = biological target: Fuc(a1-3)[Gal(b1-4)]GlcNAc(b1-2)Man(a1-3)[Fuc(a1-3)[Gal(b1-4)]GlcNAc(b1-2)Man(a1-6)]Man(b1-4)GlcNAc(b1-4)GlcNAc
# Summary of the method: as §1
# [21] = biological target: Fuc(a1-3)[Gal(b1-4)]GlcNAc(b1-2)Man(a1-3)[Fuc(a1-3)[Gal(b1-4)]GlcNAc(b1-2)Man(a1-6)]Man(b1-4)GlcNAc(b1-4)[Fuc(a1-6)]GlcNAc
# Summary of the method: as §1
# [22] = biological target: Fuc(a1-3)[Gal(b1-4)]GlcNAc(b1-3)Gal(b1-3)[Fuc(a1-4)]GlcNAc
# Summary of the method: as §1
# [23] = biological target: Fuc(a1-3)[Gal(b1-4)]GlcNAc(b1-3)Gal(b1-4)[Fuc(a1-3)]GlcNAc
# Summary of the method: as §1
# [24] = biological target: Fuc(a1-3)[Gal(b1-4)]GlcNAc(b1-3)Gal(b1-4)[Fuc(a1-3)]GlcNAc(b1-3)Gal(b1-4)[Fuc(a1-3)]GlcNAc
# Summary of the method: as §1
# [25] = biological target: Fuc(a1-3)[Gal(b1-4)]GlcNAc(b1-3)GalNAc
# Summary of the method: as §1
# [26] = biological target: Fuc(a1-3)[Gal(b1-4)]GlcNAc(b1-6)GalNAc
# Summary of the method: as §1
# [27] = biological target: Fuc(a1-3)[Gal(b1-4)]GlcNAc(b1-6)[Gal(b1-3)GlcNAc(b1-3)]Gal(b1-4)Glc
# Summary of the method: as §1
# [28] = biological target: Fuc(a1-3)[Gal(b1-4)]GlcNAc6S
# Summary of the method: as §1
# [29] = biological target: Fuc(a1-3)[Gal3S(b1-4)]Glc
# Summary of the method: as §1
# [30] = biological target: Fuc(a1-3)[Gal3S(b1-4)]GlcNAc
# Summary of the method: as §1
# [31] = biological target: Fuc(a1-3)[Gal3S(b1-4)]GlcNAc6S
# Summary of the method: as §1
# [32] = biological target: Fuc(a1-3)[GalNAc(b1-4)]GlcNAc
# Summary of the method: as §1
# [33] = biological target: Fuc(a1-3)[GalNAc(b1-4)]GlcNAc6S
# Summary of the method: as §1
# [34] = biological target: Fuc(a1-4)GlcNAc
# Summary of the method: as §1
# [35] = biological target: Fuc(b1-3)GlcNAc
# Summary of the method: as §1
# [36] = biological target: Gal(a1-2)Gal
# Summary of the method: as §1
# [37] = biological target: Gal(a1-3)Gal
# Summary of the method: as §1
# [38] = biological target: Gal(a1-3)Gal(b1-3)GlcNAc
# Summary of the method: as §1
# [39] = biological target: Gal(a1-3)Gal(b1-3)GlcNAc(b1-2)Man
# Summary of the method: as §1
# [40] = biological target: Gal(a1-3)Gal(b1-3)GlcNAc(b1-2)Man(a1-3)[Gal(a1-3)Gal(b1-3)GlcNAc(b1-2)Man(a1-6)]Man(b1-4)GlcNAc(b1-4)GlcNAc
# Summary of the method: as §1
# [41] = biological target: Gal(a1-3)Gal(b1-3)GlcNAc(b1-3)GalNAc
# Summary of the method: as §1
# [42] = biological target: Gal(a1-3)Gal(b1-3)GlcNAc(b1-6)GalNAc
# Summary of the method: as §1
# [43] = biological target: Gal(a1-3)Gal(b1-3)[Fuc(a1-4)]GlcNAc(b1-2)Man(a1-3)[Gal(a1-3)Gal(b1-3)[Fuc(a1-4)]GlcNAc(b1-2)Man(a1-6)]Man(b1-4)GlcNAc(b1-4)GlcNAc
# Summary of the method: as §1
# [44] = biological target: Gal(a1-3)Gal(b1-4)Glc
# Summary of the method: as §1
# [45] = biological target: Gal(a1-3)Gal(b1-4)GlcNAc
# Summary of the method: as §1
binder,measurement,setting,value
Pwp7 (Candida glabrata) (protein) MGSSHHHHHHSSGLVPRGSHMASKNPVDFPNLCQYPNLDGAVAGFDTEIYNADPSILINFSLWPILQFPKEWHKTIGRAITTQTNFKLPASDTTLFGVSIPTQNILIEFRGYFIPPKSGTYTFALYLTDDGSAMFLGNDAAFPCGNITSWSNPTNDQVSVSDYDPKKKTLTVYMVAGVAYPLRIAYYNREKGGSLTASFVDPDGLTHSDWNGYIWTLPSCDNCKYS,glycan array binding signal (z-score),[1],0.672
same,glycan array binding signal (z-score),[2],-0.719
same,glycan array binding signal (z-score),[3],-0.711
same,glycan array binding signal (z-score),[4],-0.076
same,glycan array binding signal (z-score),[5],-0.186
same,glycan array binding signal (z-score),[6],0.196
same,glycan array binding signal (z-score),[7],-0.963
same,glycan array binding signal (z-score),[8],0.036
same,glycan array binding signal (z-score),[9],1.38
same,glycan array binding signal (z-score),[10],0.835
same,glycan array binding signal (z-score),[11],0.877
same,glycan array binding signal (z-score),[12],-0.052
same,glycan array binding signal (z-score),[13],0.099
same,glycan array binding signal (z-score),[14],-1.38
same,glycan array binding signal (z-score),[15],-0.704
same,glycan array binding signal (z-score),[16],-0.973
same,glycan array binding signal (z-score),[17],2.63
same,glycan array binding signal (z-score),[18],-0.528
same,glycan array binding signal (z-score),[19],0.202
same,glycan array binding signal (z-score),[20],-0.667
same,glycan array binding signal (z-score),[21],-0.531
same,glycan array binding signal (z-score),[22],-0.014
same,glycan array binding signal (z-score),[23],-0.693
same,glycan array binding signal (z-score),[24],-0.285
same,glycan array binding signal (z-score),[25],-0.259
same,glycan array binding signal (z-score),[26],-0.313
same,glycan array binding signal (z-score),[27],-0.056
same,glycan array binding signal (z-score),[28],-1.32
same,glycan array binding signal (z-score),[29],-0.507
same,glycan array binding signal (z-score),[30],-1.3
same,glycan array binding signal (z-score),[31],-0.188
same,glycan array binding signal (z-score),[32],-1.03
same,glycan array binding signal (z-score),[33],-0.422
same,glycan array binding signal (z-score),[34],0.017
same,glycan array binding signal (z-score),[35],-1.54
same,glycan array binding signal (z-score),[36],-0.396
same,glycan array binding signal (z-score),[37],-0.455
same,glycan array binding signal (z-score),[38],-0.183
same,glycan array binding signal (z-score),[39],-0.541
same,glycan array binding signal (z-score),[40],-0.122
same,glycan array binding signal (z-score),[41],-0.008
same,glycan array binding signal (z-score),[42],0.128
same,glycan array binding signal (z-score),[43],0.871
same,glycan array binding signal (z-score),[44],-0.325
same,glycan array binding signal (z-score),[45],-0.314

# Pulled one by one from the list above, 3 records:
binder,measurement,setting,value
Pwp7 (Candida glabrata) (protein) MGSSHHHHHHSSGLVPRGSHMASKNPVDFPNLCQYPNLDGAVAGFDTEIYNADPSILINFSLWPILQFPKEWHKTIGRAITTQTNFKLPASDTTLFGVSIPTQNILIEFRGYFIPPKSGTYTFALYLTDDGSAMFLGNDAAFPCGNITSWSNPTNDQVSVSDYDPKKKTLTVYMVAGVAYPLRIAYYNREKGGSLTASFVDPDGLTHSDWNGYIWTLPSCDNCKYS,glycan array binding signal (z-score),[4],-0.076
same,glycan array binding signal (z-score),[12],-0.052
same,glycan array binding signal (z-score),[37],-0.455
